Results reported in publication doi:10.1101/2021.12.22.473497.
Numbering of substitutions follows the chain as printed. No constants are given. Whether binding was seen depends on the method and setting. For part of these data: Binding can be weak; no strength is given. Tags and fused reporters may be left off the sequences shown. For part of these data: In cells and extracts the contact can be indirect.

Chains of the proteins cited; added tags and fusions are not shown. Lines headed by an entry give the natural chain unless they say otherwise; changes in a name come on top.
UniProt F4J4R5: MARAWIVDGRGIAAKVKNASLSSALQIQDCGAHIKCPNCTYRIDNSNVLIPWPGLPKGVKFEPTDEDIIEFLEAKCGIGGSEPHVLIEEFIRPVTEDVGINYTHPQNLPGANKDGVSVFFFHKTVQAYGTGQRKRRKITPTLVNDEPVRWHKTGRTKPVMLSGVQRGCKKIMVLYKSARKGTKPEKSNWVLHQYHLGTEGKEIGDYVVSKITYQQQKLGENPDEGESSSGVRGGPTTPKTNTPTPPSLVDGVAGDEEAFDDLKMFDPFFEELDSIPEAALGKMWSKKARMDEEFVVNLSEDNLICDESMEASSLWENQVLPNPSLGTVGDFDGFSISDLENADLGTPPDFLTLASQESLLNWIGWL

Experiments:
[1] = biological target: T1, BD-RBR^NF (RBR with N849F fused to the GAL4 DNA binding domain) (Arabidopsis thaliana) (UniProt Q9LKZ3); assay: two-hybrid
T1 sequence: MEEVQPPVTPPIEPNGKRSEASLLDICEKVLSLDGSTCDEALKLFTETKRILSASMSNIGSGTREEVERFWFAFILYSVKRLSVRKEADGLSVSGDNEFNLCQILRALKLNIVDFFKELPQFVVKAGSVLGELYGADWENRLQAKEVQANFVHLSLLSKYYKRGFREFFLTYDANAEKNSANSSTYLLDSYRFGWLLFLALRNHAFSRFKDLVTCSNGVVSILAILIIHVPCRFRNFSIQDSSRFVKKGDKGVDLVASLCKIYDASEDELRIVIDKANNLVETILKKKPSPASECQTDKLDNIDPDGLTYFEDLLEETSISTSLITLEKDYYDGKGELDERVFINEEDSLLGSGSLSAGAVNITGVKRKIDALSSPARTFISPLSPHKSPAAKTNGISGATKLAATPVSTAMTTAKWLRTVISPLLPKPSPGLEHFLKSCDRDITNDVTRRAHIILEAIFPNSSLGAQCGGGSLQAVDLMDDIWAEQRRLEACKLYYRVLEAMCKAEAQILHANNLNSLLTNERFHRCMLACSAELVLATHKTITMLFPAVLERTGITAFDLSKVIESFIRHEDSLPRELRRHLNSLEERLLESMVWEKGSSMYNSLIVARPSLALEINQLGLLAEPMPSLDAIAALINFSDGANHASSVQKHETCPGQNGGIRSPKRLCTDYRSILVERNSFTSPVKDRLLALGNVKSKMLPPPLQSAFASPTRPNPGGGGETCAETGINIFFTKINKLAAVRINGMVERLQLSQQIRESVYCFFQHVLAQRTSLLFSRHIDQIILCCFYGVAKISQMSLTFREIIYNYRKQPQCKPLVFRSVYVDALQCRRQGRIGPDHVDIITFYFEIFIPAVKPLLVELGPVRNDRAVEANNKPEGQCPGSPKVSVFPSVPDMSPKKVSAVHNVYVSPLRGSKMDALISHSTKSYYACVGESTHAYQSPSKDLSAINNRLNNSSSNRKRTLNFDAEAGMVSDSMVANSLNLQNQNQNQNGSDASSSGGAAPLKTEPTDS

[2] = biological target: T2, BD-RBR (RETINOBLASTOMA-RELATED1 protein fused to the GAL4 DNA binding domain) (Arabidopsis thaliana) (UniProt Q9LKZ3); assay: two-hybrid
T2 sequence: T1 sequence with F849N

[3] = biological target: T3, RBR-NLuc in stable transgenic Arabidopsis seedlings (Arabidopsis thaliana) (UniProt Q9LKZ3); assay: split reporter
T3 sequence: T1 sequence with F849N

[4] = biological target: T4, RBR, split-luciferase fusion expressed in N. benthamiana leaves (Arabidopsis thaliana) (UniProt Q9LKZ3); assay: split reporter
T4 sequence: T1 sequence with F849N

For “AD-NAC044 (NAC044 fused to the GAL4 activation domain) (from UniProt F4J4R5)”, the binding [1] was “no binding” and the binding [2] was “binds”.

In the case of “AD-NAC044^GCG (LXCXE-to-GXCXG-mutated NAC044 fused to the GAL4 activation domain) (Arabidopsis thaliana)”, the binding [1] is reported as “no binding” and the binding [2] is reported as “no binding”.

With “CLuc-NAC044 in stable transgenic Arabidopsis seedlings” the binding [3] was “binds”.

“NAC044, split-luciferase fusion expressed in N. benthamiana leaves (Arabidopsis thaliana)” was tested, and the binding [4] was “binds”.
